Source: PubChem BioAssay AID1159506 (NCATS, 2015).

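Genome-wide siRNA knockdown in TC32 Ewing sarcoma cells, comparing luciferase light from an NR0B1-promoter reporter with a CMV-promoter reporter 48 hours after transfection. Each siRNA was applied at 20 nM. A z-score of the log NR0B1-over-CMV signal, less the median of siRNAs with the same seed; more negative means a stronger specific loss of the NR0B1 reporter.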

This is part of the screen; most of the strongest results are not listed here. Sequences are the guide (antisense) strand, without overhang.

{"sequence": "UUUUAUUGUCCCAGGCUGG", "target gene": "FAM212A", "seed-corrected z-score": "1.046"}
{"sequence": "UCAUCCACCACAAAUAUCA", "target gene": "TIMM23B", "seed-corrected z-score": "-0.05629"}
{"sequence": "UAACCAAUCACUAUCUUUG", "target gene": "EIF4E", "seed-corrected z-score": "0.6886"}
{"sequence": "AGGGCUAUCAGAUAUCUGC", "target gene": "PPA2", "seed-corrected z-score": "-0.4976"}
{"sequence": "AGAUCGAACAGCAAAAACC", "target gene": "C18orf8", "seed-corrected z-score": "-0.8304"}
{"sequence": "UACAUCGACCUCUUCAGCC", "target gene": "MAP1B", "seed-corrected z-score": "0.278"}
{"sequence": "UAAUCCGACAGCCCUAUGG", "target gene": "FRMD4B", "seed-corrected z-score": "0.2177"}
{"sequence": "UAAGGUAUCCGAGUAGAUC", "target gene": "INPP5A", "seed-corrected z-score": "-0.7496"}
{"sequence": "UGUUAUACAAGCAAAGAAU", "target gene": "JPH3", "seed-corrected z-score": "0.03404"}
{"sequence": "UAACUGAGCACGAUUUCUC", "target gene": "CNOT8", "seed-corrected z-score": "-0.1531"}
{"sequence": "UGCUCUAUGACGGUCAGGA", "target gene": "NEDD9", "seed-corrected z-score": "-0.08515"}
{"sequence": "UAACUCCUGAGGUCCAGUC", "target gene": "FOLR2", "seed-corrected z-score": "0.1848"}
{"sequence": "UACUUGAUGAAGGCCCAGC", "target gene": "GPR108", "seed-corrected z-score": "-0.4412"}
{"sequence": "UUUCGAUACUGAUAUGUCC", "target gene": "FNIP1", "seed-corrected z-score": "0.2818"}
{"sequence": "UGGUCAACGAAUGAGAAUC", "target gene": "FGA", "seed-corrected z-score": "-0.1062"}
{"sequence": "UCUUUCAUCAGGAGCACCU", "target gene": "RBMXL2", "seed-corrected z-score": "0.6953"}
{"sequence": "UAGUGAUUUUAAGCGAUUG", "target gene": "OIP5", "seed-corrected z-score": "1.387"}
{"sequence": "UAUGUAGUAGAUUAUUGUC", "target gene": "FBXO45", "seed-corrected z-score": "0.1829"}
{"sequence": "UUGGUUGACAUCAGGAACU", "target gene": "CYP46A1", "seed-corrected z-score": "0.3377"}
{"sequence": "AAACUUGUCAUCCUGCUUG", "target gene": "SLC22A14", "seed-corrected z-score": "0.06116"}
{"sequence": "UUCGGGACGGUGGCAUUUG", "target gene": "ZNF414", "seed-corrected z-score": "0.1093"}
{"sequence": "UUUCAACCAAGCAACUGCA", "target gene": "ARTN", "seed-corrected z-score": "0.174"}
{"sequence": "UAAGGGAAAACCACGGAUG", "target gene": "PRR27", "seed-corrected z-score": "1.041"}
{"sequence": "AAUAGCAUCACUGUUAGCC", "target gene": "GHR", "seed-corrected z-score": "-1.13"}
{"sequence": "UUAGCUUGCAUGCGUUUCC", "target gene": "CEP57", "seed-corrected z-score": "1.162"}
{"sequence": "CACGGUCACUUCUUGGUCC", "target gene": "MRPL55", "seed-corrected z-score": "-0.4634"}
{"sequence": "UUGUUGAACACCAGGAUCC", "target gene": "ADGRB1", "seed-corrected z-score": "1.399"}
{"sequence": "UUCAGCUAAAUCAUCCUGG", "target gene": "SCIN", "seed-corrected z-score": "-1.161"}
{"sequence": "UCCUUUGUCACAGUCAUCA", "target gene": "CRISP2", "seed-corrected z-score": "0.6504"}
{"sequence": "UUAUCUUCCUCGUCCAUCU", "target gene": "TMA7", "seed-corrected z-score": "1.659"}
{"sequence": "UCCAGUAUCUGAGAAGUUG", "target gene": "RPL11", "seed-corrected z-score": "-1.807"}
{"sequence": "UAACGGAUAACAAUGUUAC", "target gene": "IFIH1", "seed-corrected z-score": "0.09559"}
{"sequence": "AUAGGGUUUAUCCUCAGUG", "target gene": "ZNF20", "seed-corrected z-score": "0.3519"}
{"sequence": "UAAGUCUUCUGCGGACUUC", "target gene": "ARMC10P1", "seed-corrected z-score": "-0.07706"}
{"sequence": "UAAACCACCAGGUGGAUUC", "target gene": "C8orf22", "seed-corrected z-score": "0.3415"}
{"sequence": "UUGAAUUGGGACAUGAGCC", "target gene": "MIR3945HG", "seed-corrected z-score": "0.3405"}
{"sequence": "UAAGAGGUCUAUUUUGUUC", "target gene": "EEFSEC", "seed-corrected z-score": "0.02371"}
{"sequence": "ACUGUGGUGAAGUAAGGCC", "target gene": "DPY19L2", "seed-corrected z-score": "-0.6533"}
{"sequence": "UGUUCUCAUCAUUAAGAUC", "target gene": "BCL7C", "seed-corrected z-score": "-0.3631"}
{"sequence": "UAGCAUACUAUACAACAUG", "target gene": "PUS3", "seed-corrected z-score": "0.09548"}
{"sequence": "UUACAUUUUGCAUAGUGGG", "target gene": "PCMT1", "seed-corrected z-score": "0.4189"}

For reference, 3 entries once more:

AAUAGCAUCACUGUUAGCC against GHR read seed-corrected z-score -1.13.
CACGGUCACUUCUUGGUCC against MRPL55 read seed-corrected z-score -0.4634.
UAAGGUAUCCGAGUAGAUC against INPP5A read seed-corrected z-score -0.7496.